Values from PubChem BioAssay AID1259308 (NCATS, 2017)

- Purpose: 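Candidate targets for better recombinant protein yield in mammalian cells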 (primary screen)
- System: human HEK293 embryonic kidney cells stably expressing firefly luciferase (HEK-CMV-Luc2-Hygro)
- Reagent: single siRNA against human genes, 0.8 pmol siRNA per well
- Time to read-out: 72 h
- Measured: 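Reporter luminescence and viable-cell signal on separate replicate plates, given as percent of non-targeting control and median/MAD z-scores, plus per-cell luciferase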
- Scale: total luciferase, z-score and total luciferase, % of control: higher = more reporter protein produced
- Rule for the call: 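An siRNA counts as active if its total luciferase robust z-score exceeds 3; genes with two or more such siRNAs out of three were retested with fresh siRNAs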
- Calls: active = raised luciferase; inactive = no rise
Shown is an unselected part of about 59,000 deposited reagents. Over the whole deposit, about 1,510 (2.6%) got an active call. 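Calls use total luciferase alone and ignore viability, so some active siRNAs may act by altering cell number.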 Reagents against one gene are numbered here. Further read-outs or replicates are left out here.

HJURP (Holliday junction recognition protein) #1 gave total luciferase, z-score 0.247; total luciferase, % of control 86.8; inactive. After knock-down of HJURP (Holliday junction recognition protein) #2, the record shows total luciferase, z-score 0.249; total luciferase, % of control 86.8; inactive. HJURP (Holliday junction recognition protein) #3 gave total luciferase, z-score 0.802; total luciferase, % of control 97.8; inactive. Knock-down of HOXA2 (homeobox A2) #1 came out at: total luciferase, z-score -0.737; total luciferase, % of control 67.2; inactive. For HOXA2 (homeobox A2) #2, the entry reads total luciferase, z-score -0.639; total luciferase, % of control 69.2; inactive. Against HOXA2 (homeobox A2) #3, the entry reads total luciferase, z-score 1.15; total luciferase, % of control 105; inactive.

After knock-down of CDCP1 (CUB domain containing protein 1) #1, the record shows total luciferase, z-score -2.39; total luciferase, % of control 34.3; inactive. Against CDCP1 (CUB domain containing protein 1) #2 the deposit lists total luciferase, z-score -0.237; total luciferase, % of control 77.2; inactive. With knock-down of CDCP1 (CUB domain containing protein 1) #3, the record shows total luciferase, z-score -0.324; total luciferase, % of control 75.5; inactive. CFAP95 (cilia and flagella associated protein 95) #1 scored total luciferase, z-score 0.993; total luciferase, % of control 102; inactive. CFAP95 (cilia and flagella associated protein 95) #2 gave total luciferase, z-score -0.291; total luciferase, % of control 76.1; inactive. For CFAP95 (cilia and flagella associated protein 95) #3 the deposit lists total luciferase, z-score -1.57; total luciferase, % of control 50.7; inactive.
